Article doi:10.1101/363747
No constants are given. Whether binding was seen depends on the method and setting. In cells and extracts the contact can be indirect. A yes stands for co-enrichment or nearness to the bait. Other partners may have been found. A no says only that the protein was not detected with the bait.

B1: eIF3e (protein, UniProt O94513 1-501)
chain: MGSELKSTSPLAVKYDLSQKIMQHLDRHLIFPLLEFLSLRQTHDPKELLQAKYDLLKDTNMTDYVANLWTNLHGGHTDEDMANAFAEKRRSVLQELSELEEEVQGILGVLENPDLIAALRQDKGQNLQHLQEHYNITPERIAVLYKFAQFQYNCGNYGGASDLLYHFRAFSKDPELNASATWGKFASEILTVDWDGAMEELGKLREMVDSKSFKDSAVQLRNRTWLLHWSLFPLFNHANGCDTLCDLFFYTPYLNTIQTSCPWLLRYLTVAVVTNQNNANQKPRNPRQSYQRRMRDLVRIISQENYEYSDPVTSFISALYTEVDFEKAQHCLRECEEVLKTDFFLVSLCDHFLEGARKLLAEAYCRIHSVISVDVLANKLEMDSAQLIQLVENRNNPSVAAASNVAADQSTEDESIESTSTNVVADDLITEAETATEAEEPEPEVQFGFKAKLDGESIIIEHPTYSAFQQIIDRTKSLSFESQNLEQSLAKSISELKHATV
B2: eIF3g (Tif35), endogenous (protein, UniProt P78795 1-282)
chain: MSSSKSLDWADDEDYGTGLPSIQTFDNPDGTKTMIEFRIDDNGKKVKVTRVIRKTVITERVQHAVAERKKWKKFGKEAGKNSGVDARTTSVGENVQLRLQLGWTTTKEEEQDEAALAAAKVKAKGSSVVRCRACKGNHFTAQCPYKSIIGPVDEPPLDASPVSSRASGALGEKGRYIAPHLRAGSGRESGDSMFKRERDDSATLRVTNLSDDTREEELRDLFRRFGGIQRVYLAKDKETGRAKGFAFVSYYDRDCAIKARDRLDGYGWNNLILRCEFSKPRD
B3: eIF3i (Sum1), endogenous (protein, UniProt P79083 1-328)
chain: MRPIILQGHERPLTQIKYNHDGDLLFSCAKDKVINVWFSHNGERLGTYEGHTGAIWTCDINKSSTLMVSGAADNTMRLWDVKTGKQLYKWEFPTAVKRVEFNEDDTRILAVTEERMGYAGTVTVFRVPISESDAAAETPLYVITTRESKATVAGWSYLSKFLFTGHEDGSVSRYDAITGEFVESKQVHNSGSTITDLQFYPDRTYFITSCKDTTAKAIDVDSFEVIKTYLTDTPLNTSSFTPVQDFVILGGGQEARDVTTTAARQGKFEARFYHAILEEELGRVKGHFGPINTIAVHPKGTGYASGGEDGYVRVHFFDKNYFDFKYTL
B4: Tif32 (eIF3a) (protein, UniProt O74760 1-932)
chain: MAPPQGKPENVLRLADELIALDQHSSALQSLHETIVLKRSRNAQGFSLEPIMMRFIELCVHLRKGKIAKEGLYTYKNAVQNTSVTAIENVVKHFIELANKRVQEAQEKADKISVEYVDDLEATETPESIMMSLVSGDLSKSRTDRALVTPWLKFLWDAYRTVLDILRNNARLEVMYQLIANSAFQFCLKYQRKTEFRRLCELLRSHLGNASKFSNAPHSINLNDAETMQRHLDMRFSQLNVAVELELWQEAFRSIEDIHSLLTFSKRAPAAVMLGNYYRKLIKIFLVCDNYLLHAAAWNRYFTFTNVQKPATANFVILSALSIPIIDANKLSGPSIEAEDAKSKNARLALLLNLSKTPTRETLIKDAISRGVLSFCDQAIRDLYQILEVEFHPLSICKKLQPIIKRLAESNDTAQYIRPLQQVILTRLFQQLSQVYDSISLKYVMDLATFEEPYDFNPGQIEKFIMNGNKKGAFSIRLNHIENSISFSSDLFSNPIKSSDSVSLQSTPSELITSQLTRIAKSLSSVLMRFDTDFCLLRKQQAEAAYERAQAGVEQERKAVIAQRSLLELRRGQADTLATQREAELAAQRALKQKQESEAESLRVQEEINKRNAERIRREKEAIRINEAKKLAEELKAKGGLEVNAEDLEHLDADKLRAMQIEQVEKQNKSMNERLRVIGKRIDHLERAYRREAIPLWEEDAKQQAEHDREIFYEREKQRKEVQERKHEQAIKDKKAFAQFASYIHAYKQNIDDERDKAYQEAYAKAKNVIDAERERQRKEIFEQKLAEAIREAEEEAARAAEEEANRELHEQEEAQKRAIEERTRAAREAKEREQREMAEKLERQRRIQQERDEEISRKLAEKAAARRANIGASSPSPGAWRRGGASAGGVSRDSPRYSRGGYSRGSVPPRETLAPSKGAYVPPSRRNQQQQ
B5: eIF3b (protein, UniProt Q10425 1-725)
chain: MSEILIEEIKDQIVVKDEEIDVSELEVKLNVTKPVGYDTVVVIEGAPVVEEAKQQDFFRFLSSKVLAKIGKVKENGFYMPFEEKNGKKMSLGLVFADFENVDGADLCVQELDGKQILKNHTFVVRKLNQLEKAFSTPDEFSFEEREFKEREHLRSWLTDYYGRDQFISYYGNRVSVNWNRKSDVPEQIVDRENWTETYVQWSPMGTYLVSLHLRGIQLWGGESWGMCARFLHPYVKFVDFSPNEKYLVSWSYEPVRLPPIGHPARETMPFTDDDEGKHCFVWDIASGRILRSFKIPPQPEGSKDGKKVIWPIFKWSADDKYLARVTVGQSISVYETPSLALVDKKTIKIDGVQNFEWCPVSDALGRDSKEQLLAYWTPEITNQPARVALISIPSKSTIRTKNLFNVSDCKLYWQSNGDYLCVKVDRHTKTKKSTFSNLEIFRIREKNIPVEVVDLKDVVLNFAWEPKSDRFAIISANDQVLNSTNVKTNLSFYGFEQKKNTPSTFRHIITFDKKTCNSLFMAPKGRFMVAATLGSSTQYDLEFYDLDFDTEKKEPDALANVQQIGSAEHFGMTELEWDPSGRYVTTSSTIWRHKLENGYRLCDFRGTLLREEMIGEFKQFIWRPRPPSPLTKEDMKKIRKKLKDYNRLFDEEDIAEQSSANRELAARRRQLISEWQKYRDEVIARVAEERAITGQPAITVPAEEEEIIQETVEEVISEEIEPVED
B6: eIF3c (protein, UniProt O14164 1-918)
chain: MSRFFKGGSSDSDAESVDSSEENRLTSSRLKKQDDSSSEEESSEEESASSSESESSEEESESEESEVEVPKKKAVAASEDSESDSESSEEEEETESEEDSEVSDESESESESESESEEESESEEESDESERSGPSSFLKKPEKEEAKPAGLKFLRGESSEESSDEEEGRRVVKSAKDKRYEEFISCMETIKNAMSSNNWIVVSNEFDHLNKVSQKCKEAGRNPPPYIEFLSALDQKLESADKAFIKSLDAANGRAFNALKQRVRKNNRQFQSDIDRYRKDPEGFMKPAELNEIPKPAGKAGQDEVIVDGVATRGIVAPTEGLGKPEEITPADIFKYLRAIFEARGKKSTDRSEQIRLLEKLSTIAVTDYQRLRVKVALLAVRFDINTGSGQYMPIDQWNAALTELHSILDIFDANPKIVIVEQVEDENEEEEEAIAAAENNNGVIQVQGSVVSFLERLDDEFTRSLQMIDPHTPEYIDRLKDETSLYTLLVRSQGYLERIGVVENTARLIMRRLDRVYYKPEQVIRANEEVAWRSFPPTFDLTITPRATTTTPDILIHSLCVYLYNNGVSLLRTRAMLCHIYHEALQNRFYKARDMLLMSHLQDSVHAADIATQILHNRTMVQIGLCAFRNGMVQETQYALQDISTTGRVKELLGQGIQAPKFGQFTPDQDRLDKQLVLPFHMHINLELLECVYLTCSMLMEIPAMAAASSTASDSRKRVISRPFRRMLEYIDRQLFVGPPENTREYIMQASKALADGEWRRCEEFIHAIKIWSLMPDADKIKQMLSEKIREEGLRTYLLAYAAFYDSVSLEFLATTFDLPVQRVTVIVSRLLSKREIHAALDQVHGAIIFERVEINKLESLTVSLSEKTAQLNEANEKLYEQKTQHTNPQENRRRDKGGSVKRRNERTENRNRSDMN
B7: eIF3d (protein, UniProt O94236 1-567)
chain: MATGFKLPELAPVKSAWGPPETEQIGGDIPYAPFSKGDRLGKIADWSVDQPKDGREQRGRQGAFAGRFRDQYQTYGYGASSIFGYQHSEDESSFSVIDRGSVNRTRTSARNGGTLLKVRGRGQNVQRGGRGGRYGSSGGRGAGDTVVSRSSGAGGARGRRFGWKDYDKHQRLRNASVTVGDDWQLLDEVEFSHLSKLNLAAAAPVTVDSYGYIYPYDKSFDKIHVKSEKPLQALDRVHYNPTTTEDPVIQKLALNSDANIFITDSILSLLMCSTRSVYPWDIVITHQSGKLFFDKREGGPFDYLTVNENAYDSPMDADNREGVNSPGALSVEATYINQNFCVQALRETEEEKYKLPHPNPFYNSKEQSEPLAAHGYIYRDVDLSLETDEKPVKLMVRTEVDGYVKNPANDVQYISIKALNEYDPKFTNVTGSVDWRSKLESQRGAVFATEMKNNSCKLARWTVEALLAGVDSMKVGFVSRSNARDAQHHGILGVVAYKPADLASQMNLSLSNGWGIVRTIADVCLKMPDGKYVLVKDPNRPILRLYSVPPNTFEEAAGPSLEASSTA

Target: eIF3m-TAP (S. pombe)
Test: affinity purification with mass spectrometry

| binding | Binder |
| --- | --- |
| no binding | B1 |
| binds | B2 |
| binds | B3 |
| binds | B4 |
| binds | B5 |
| binds | B6 |
| binds | B7 |
